The results in this text go back to paper PMC9532970, “Rational design of photosynthetic reaction center protein maquettes” (Frontiers in Molecular Biosciences, 2022).

Molecules are shown by their SMILES.

The test system of the data set is RC maquette. Description: UV/vis cofactor binding titration into RC maquette (no heme pre-bound). The settings on record: electron acceptor titrated into RC maquette, pH 7.0. The procedure:
Ultraviolet/visible absorbance spectroscopy (UV/vis) was carried out on a Varian Cary-50 spectrophotometer. Cofactor binding titrations were performed at room temperature using 1 ml samples of ∼1 μM RC maquette in quartz cuvettes. Protein concentrations were calculated by assuming that Trp and Tyr residues have extinction coefficients at 280 nm (ε280nm) of 5,500 M^−1 cm^−1 and 1,490 M^−1 cm^−1, respectively. Samples of Zn 5-phenyl 15-(p-carboxyphenyl) porphyrin (ZnPCP) and Zn Newkome porphyrin were provided by Tatiana Esipova from the research group of Sergei Vinogradov ([Kodali et al., 2017]). The Zn chlorins SE370 and SE375 were produced by the laboratory of Jonathan Lindsey following previously established methods ([Aravindu et al., 2013]; [Kodali et al., 2017]). […] Heme B stock concentrations were measured by hemochrome assay ([Berry and Trumpower, 1987]). […]
In Eq. 2, A represents the total absorbance at a given wavelength, c tot is the total cofactor concentration, P tot is the total protein concentration, K D is the dissociation constant, εfree is the extinction coefficient of unbound cofactor in solution, εbound is the extinction coefficient of protein-bound cofactor, and b is the absorbance of the sample when c tot is zero.

Consider `C=Cc1c(C)c2cc3[nH]c(cc4nc(cc5nc(cc1[nH]2)C(C)=C5CCC(=O)[O-])C(CCC(=O)[O-])=C4C)c(C)c3C=C.[Co+2]` [CoPPIX, Co(III) protoporphyrin IX], for which the “binding stoichiometry (cofactor per maquette)” value is reported as 1.0. With `C=CC1=C(C)c2cc3[n-]c(cc4[n-]c(cc5nc(cc1n2)C(C)=C5C=C)c(C)c4CCC(=O)O)c(CCC(=O)O)c3C.[Fe+2]` [heme B] the figure was 1.0.
